For one substance, binding results are on record in doi:10.1101/2020.05.29.123786.

For this assay, the target named is T1, PilQ from Pseudomonas aeruginosa (type IVa pilus secretin) (Pseudomonas aeruginosa) (UniProt P34750).
T1 sequence: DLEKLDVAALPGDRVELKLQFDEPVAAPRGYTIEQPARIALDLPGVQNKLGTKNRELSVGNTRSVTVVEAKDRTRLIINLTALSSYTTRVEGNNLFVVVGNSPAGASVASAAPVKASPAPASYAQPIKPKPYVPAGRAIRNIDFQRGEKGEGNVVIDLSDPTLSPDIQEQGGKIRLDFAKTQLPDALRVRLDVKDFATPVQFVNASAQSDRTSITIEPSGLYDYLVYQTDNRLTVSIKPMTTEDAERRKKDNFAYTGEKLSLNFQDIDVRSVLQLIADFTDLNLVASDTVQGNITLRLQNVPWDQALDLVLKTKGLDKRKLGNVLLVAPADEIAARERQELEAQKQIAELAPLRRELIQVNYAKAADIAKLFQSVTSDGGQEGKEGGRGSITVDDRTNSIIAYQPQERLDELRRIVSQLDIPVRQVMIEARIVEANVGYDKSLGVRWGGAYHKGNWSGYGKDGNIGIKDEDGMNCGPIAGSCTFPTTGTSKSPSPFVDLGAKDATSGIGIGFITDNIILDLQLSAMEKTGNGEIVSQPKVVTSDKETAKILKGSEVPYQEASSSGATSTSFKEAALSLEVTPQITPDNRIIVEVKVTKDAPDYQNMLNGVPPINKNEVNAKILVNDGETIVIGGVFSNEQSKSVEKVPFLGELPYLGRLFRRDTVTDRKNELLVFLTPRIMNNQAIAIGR
Kind of assay: affinity purification with mass spectrometry.

No constants are given. Whether binding was seen depends on the method and setting. Binding seen in cells or lysates may run through a third protein. These calls come from enrichment with a bait or labelling near it, and not all partners need be listed.

With TsaP from Pseudomonas aeruginosa, the binding entry is reported as “binds”.
